# According to the supplement of paper PMC8007513:
# The list shows a part of the results. Most values come without repeats; read them as rough.
# Tested on: Saccharomyces cerevisiae BY4743
# Assay: growth (OD600) with compound + IPBC relative to untreated control; higher = less growth inhibition
# Conditions: compound concentration: 133 uM; IPBC concentration: 0.5 ug/ml; 20 h
# Protocol: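 NMCCC compounds (133 uM) combined with IPBC (0.5 ug/ml) against Saccharomyces cerevisiae BY4743 in YPD, 96-well plates. Growth was read as OD600 at 20 h and expressed as % of the untreated control. Single pass.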
row,SMILES,growth [%]
1,Cc1nn(C)c(C)c1CNC(=O)C1C2CCC(O2)C1C(=O)O (centres undefined) + CCCCNC(=O)OCC#CI [3-iodo-2-propynyl butylcarbamate (IPBC)],103
2,CC(C)[C@H](NC(=O)Cc1ccccc1)C(=O)OCC(=O)N1CCN(c2cccc(Cl)c2)CC1 + CCCCNC(=O)OCC#CI [3-iodo-2-propynyl butylcarbamate (IPBC)],88.3
3,CCc1sc(C(=O)N(C)Cc2ccc3c(c2)OCO3)cc1C + CCCCNC(=O)OCC#CI [3-iodo-2-propynyl butylcarbamate (IPBC)],103
4,CCOC(=O)c1cc(C)n(CC2CCC(C(=O)Nc3ccccc3OCC)CC2)c1C (centres undefined) + CCCCNC(=O)OCC#CI [3-iodo-2-propynyl butylcarbamate (IPBC)],96.4
5,CCCn1c(SCC(=O)Nc2ccc(CC#N)cc2)nnc1-c1ccncc1 + CCCCNC(=O)OCC#CI [3-iodo-2-propynyl butylcarbamate (IPBC)],103
6,Cc1ccc(OCC(=O)Nc2cc(-c3ccc(F)c(F)c3)no2)cc1C + CCCCNC(=O)OCC#CI [3-iodo-2-propynyl butylcarbamate (IPBC)],93.9
7,CCN(C(=O)NCc1noc2ccc(C)cc12)c1cccc(Cl)c1 + CCCCNC(=O)OCC#CI [3-iodo-2-propynyl butylcarbamate (IPBC)],87
8,O=C(CSc1ccc2c(c1)OCCCO2)NC1CCS(=O)(=O)C1 (centres undefined) + CCCCNC(=O)OCC#CI [3-iodo-2-propynyl butylcarbamate (IPBC)],104
9,O=C1CCCCC1Sc1nnc(O)n1Cc1ccccc1 (centres undefined) + CCCCNC(=O)OCC#CI [3-iodo-2-propynyl butylcarbamate (IPBC)],91
10,CC(OC(=O)\C1=N\N(C(=O)CC1)C2=CC=CC=C2)C(=O)NC3=CC=CC=C3OC(F)F (centres undefined) + CCCCNC(=O)OCC#CI [3-iodo-2-propynyl butylcarbamate (IPBC)],103
11,CC(C)CC(NS(=O)(=O)c1ccc2c(c1)CCCC(=O)N2)C(=O)N1CCOCC1 (centres undefined) + CCCCNC(=O)OCC#CI [3-iodo-2-propynyl butylcarbamate (IPBC)],110
12,CCC(C)N1CCN(C(=O)CN(C)S(=O)(=O)c2ccc3c(c2)c(=O)n(C)c(=O)n3C)CC1 (centres undefined) + CCCCNC(=O)OCC#CI [3-iodo-2-propynyl butylcarbamate (IPBC)],106
13,CCCCn1c(=O)[nH]c2nc3cc(NC(C)=O)ccc3nc2c1=O + CCCCNC(=O)OCC#CI [3-iodo-2-propynyl butylcarbamate (IPBC)],95.2
14,CCCCc1c(C)nn(-c2nc(C)c(C(=O)NC(C)C)s2)c1O + CCCCNC(=O)OCC#CI [3-iodo-2-propynyl butylcarbamate (IPBC)],114
15,COC(=O)c1c(C)[nH]c(C(=O)N2CCOC(C)C2)c1C (centres undefined) + CCCCNC(=O)OCC#CI [3-iodo-2-propynyl butylcarbamate (IPBC)],99.8
16,CN(CCOC1=CC=C(F)C=C1)CC/2=C/C(=O)N/3\C=C/C=C\C3=N2 + CCCCNC(=O)OCC#CI [3-iodo-2-propynyl butylcarbamate (IPBC)],99
17,COC(=O)CCN1C(=O)\C=C(\C)C2=C[N](C)N=C12 + CCCCNC(=O)OCC#CI [3-iodo-2-propynyl butylcarbamate (IPBC)],92.7
18,CCN1\N=C(\C(=O)OC2CCOC2=O)C3=CC=CC=C3C1=O (centres undefined) + CCCCNC(=O)OCC#CI [3-iodo-2-propynyl butylcarbamate (IPBC)],99
19,CCCNC(=O)COC1=CC=C2C(=O)\C(=C(\C)OC2=C1)C3=CC=C(OC)C(=C3)OC + CCCCNC(=O)OCC#CI [3-iodo-2-propynyl butylcarbamate (IPBC)],105
20,CC1=CC=C(NC(=O)\C2=C\CN(CC2)CC3=CC=C(F)C=C3)C=C1F + CCCCNC(=O)OCC#CI [3-iodo-2-propynyl butylcarbamate (IPBC)],104

row,SMILES,growth [%]
1,CC(=O)N1CCSc2ccc(S(=O)(=O)Nc3ccc(OC(F)(F)F)cc3)cc21 + CCCCNC(=O)OCC#CI [3-iodo-2-propynyl butylcarbamate (IPBC)],117
2,COC(=O)CC(NC(=O)c1cc(C(C)=O)c[nH]1)c1ccccc1Cl (centres undefined) + CCCCNC(=O)OCC#CI [3-iodo-2-propynyl butylcarbamate (IPBC)],98.1
3,O=C(COCC(F)(F)F)NC(c1ccccc1)c1cc2ccccc2o1 (centres undefined) + CCCCNC(=O)OCC#CI [3-iodo-2-propynyl butylcarbamate (IPBC)],93.6
4,Cc1ccc(/C=C/c2nnc(-c3cccs3)o2)cc1 + CCCCNC(=O)OCC#CI [3-iodo-2-propynyl butylcarbamate (IPBC)],78.4
5,CC1C2CC(CC(C)(C)C2)N1C/3=C(\Cl)C(=O)N(CC(O)=O)/N=C3 (centres undefined) + CCCCNC(=O)OCC#CI [3-iodo-2-propynyl butylcarbamate (IPBC)],87.6
6,Cc1c(C(=O)O)cc(-c2ccc(F)cc2)n1C + CCCCNC(=O)OCC#CI [3-iodo-2-propynyl butylcarbamate (IPBC)],80.2
7,COc1ccc(N(CC(=O)NCC2CCCO2)S(=O)(=O)c2c(C)noc2C)cc1 (centres undefined) + CCCCNC(=O)OCC#CI [3-iodo-2-propynyl butylcarbamate (IPBC)],91.9
8,NC(=O)c1ccsc1NC(=O)c1ccc(F)cc1F + CCCCNC(=O)OCC#CI [3-iodo-2-propynyl butylcarbamate (IPBC)],69.9
9,Oc1cccc2ccc(/C=C/c3ccc(Br)o3)nc12 + CCCCNC(=O)OCC#CI [3-iodo-2-propynyl butylcarbamate (IPBC)],94.9
10,CC(C)NC(=O)CNC(=O)CSc1nnc(NCc2ccc(F)cc2)s1 + CCCCNC(=O)OCC#CI [3-iodo-2-propynyl butylcarbamate (IPBC)],107
11,CCC(=O)OCC/1=C/C(=O)N/2\N=C(/SC2=N1)C(C)C + CCCCNC(=O)OCC#CI [3-iodo-2-propynyl butylcarbamate (IPBC)],87.6
12,COc1ccc(C(CC(=O)O)NS(=O)(=O)c2ccc3c(c2)N(C(C)=O)CC(C)O3)cc1 (centres undefined) + CCCCNC(=O)OCC#CI [3-iodo-2-propynyl butylcarbamate (IPBC)],101
13,CC(C)COc1ccccc1C(=O)Nc1ccccc1C(=O)N1CCCC1 + CCCCNC(=O)OCC#CI [3-iodo-2-propynyl butylcarbamate (IPBC)],91.7
14,O=C(CSc1nc2ccc[nH]c-2n1)Nc1nccs1 + CCCCNC(=O)OCC#CI [3-iodo-2-propynyl butylcarbamate (IPBC)],82.7
15,CCCC(=O)Nc1ccc(C(=O)CSc2nnc(-c3cccnc3)n2C)cc1 + CCCCNC(=O)OCC#CI [3-iodo-2-propynyl butylcarbamate (IPBC)],98.3
16,CNc1snc(C)c1C(=O)OCc1coc(-c2cccs2)n1 + CCCCNC(=O)OCC#CI [3-iodo-2-propynyl butylcarbamate (IPBC)],105
17,COc1ncccc1C(=O)Nc1ccc(-n2cncn2)nc1 + CCCCNC(=O)OCC#CI [3-iodo-2-propynyl butylcarbamate (IPBC)],103
18,CCN(CC)c1ccc(C(=O)Nc2nc(C)c(SCC#N)s2)cn1 + CCCCNC(=O)OCC#CI [3-iodo-2-propynyl butylcarbamate (IPBC)],101
19,Cc1nc(-c2ccccc2)c(C(=O)OCC(=O)c2ccc[nH]2)s1 + CCCCNC(=O)OCC#CI [3-iodo-2-propynyl butylcarbamate (IPBC)],99.6

# As a short view, part of the list above.
row,SMILES,growth [%]
15,CCCC(=O)Nc1ccc(C(=O)CSc2nnc(-c3cccnc3)n2C)cc1 + CCCCNC(=O)OCC#CI [3-iodo-2-propynyl butylcarbamate (IPBC)],98.3
16,CNc1snc(C)c1C(=O)OCc1coc(-c2cccs2)n1 + CCCCNC(=O)OCC#CI [3-iodo-2-propynyl butylcarbamate (IPBC)],105
